# Several values for one entry are separate records, joined by “and”; a condition that tells them apart may be missing. Identical values can stand only once. Counter-ions that a name gives are not always drawn. ± gives the standard deviation of the averaged measurements. The list shows a part of the results. Plates or batches differ in their baseline, so values are only roughly comparable.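 Primary human stellate myofibroblasts activated in culture; inactivation shown by regained lipid droplets. Readout: fraction of Hoechst-counted cells exceeding a per-plate Bodipy threshold, duplicate wells, each plate with DMSO negative and nortriptyline positive controls. Hits: control-normalized score beyond the plate's top-tenth-percentile nortriptyline wells, or among its three best wells. Final well concentrations unstated.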
# System: primary human hepatic stellate cells (donor 1)
# Experiment: percent Bodipy-positive cells; higher = more lipid droplet accumulation
# Settings: 48 h
# [1] = library stock concentration: 10 mM
# [2] = library stock concentration: 80 uM
# [3] = library stock concentration: 400 uM
# [4] = library stock concentration: 2 mM
# [5] = library stock concentration: 3.33 mM
# [6] = library stock concentration: 1 mM
structure (smiles),measurement,setting,value
COCCOc1cc2nc[nH]c(=O)c2cc1OCCOC,percent Bodipy-positive cells,[1],44.2 ± 2.2%
O=C1O[C@H](CO)[C@@H](O)[C@H](O)[C@H]1O [Gluconolactone],percent Bodipy-positive cells,[1],45.3 ± 5%
CS(=O)(=O)c1cccc(CNc2nc(Nc3ccc4c(c3)CCC(=O)N4)ncc2C(F)(F)F)c1,percent Bodipy-positive cells,[2],6.19 ± 1.3%
same,percent Bodipy-positive cells,[3],3.88 ± 0.85%
same,percent Bodipy-positive cells,[4],3.46 ± 1.3%
same,percent Bodipy-positive cells,[5],4.04 ± 0.53%
CCCCCCCCCCC[C@@H](C[C@@H]1OC(=O)[C@H]1CCCCCC)OC(=O)[C@H](CC(C)C)NC=O,percent Bodipy-positive cells,[1],56.6 ± 13%
CCCCCCCCCCC[C@@H](C[C@@H]1OC(=O)[C@H]1CCCCCC)OC(=O)[C@H](CC(C)C)NC=O [Orlistat],percent Bodipy-positive cells,[5],24.5 ± 2%
same,percent Bodipy-positive cells,library stock concentration: 4 mM,40.7 ± 6.5%
CC1(C)CCC(CN2CCN(c3ccc(C(=O)NS(=O)(=O)c4ccc(NCC5CCOCC5)c([N+](=O)[O-])c4)c(Oc4cnc5[nH]ccc5c4)c3)CC2)=C(c2ccc(Cl)cc2)C1,percent Bodipy-positive cells,[5],31 ± 4.5%
same,percent Bodipy-positive cells,[1],26.5 ± 6.2%
CC(C)(C)n1nc(-c2ccc(Cl)cc2)c2c(N)ncnc21,percent Bodipy-positive cells,[5],14.5 ± 1.8%
same,percent Bodipy-positive cells,[1],54.7 ± 0.71%
CN1CCCC(n2nc(Cc3ccc(Cl)cc3)c3ccccc3c2=O)CC1.Cl (stereo unspecified) [Azelastine hydrochloride],percent Bodipy-positive cells,library stock concentration: 4.8 mM,89.1 ± 4.4%
same,percent Bodipy-positive cells,[1],91.9 ± 6.3%
Cc1cc(C(=O)Nc2cc(Nc3ccc4c(/C=C/c5ccccn5)n[nH]c4c3)ccc2F)n(C)n1,percent Bodipy-positive cells,[3],14 ± 1.4%
same,percent Bodipy-positive cells,[4],51.2 ± 1.5%
O=C(O)c1ccccc1Nc1ccccc1 [N-Phenylanthranilic acid],percent Bodipy-positive cells,[1],57 ± 5.1%
same,percent Bodipy-positive cells,library stock concentration: 23.5 mM,21.7 ± 0.61%
COc1ccccc1N1CCN(CCCCNC(=O)c2ccc3ccccc3c2)CC1,percent Bodipy-positive cells,[1],94.37 ± 0.81%
CCCCCCCCCCC1=C(C)C(=O)C(OC)=C(OC)C1=O [Decylubiquinone],percent Bodipy-positive cells,library stock concentration: 15.5 mM,9.52 ± 5.3%
NC(=O)CCCSc1nc(N)nc(-c2c(Cl)cc3c4c(cccc24)COC3)n1,percent Bodipy-positive cells,[5],84.42 ± 0.13%
same,percent Bodipy-positive cells,[1],89.9 ± 3.4%
C[C@@H]1NC(=O)NC1=O [Methylhydantoin-5-(L)],percent Bodipy-positive cells,,8.3 ± 0.54%
C=CC[C@H](N)C(=O)O [L-allylglycine],percent Bodipy-positive cells,[1],51.6 ± 8.2%
Brc1ccc([C@H]2CN3CCSC3=N2)cc1 [S(-)-p-Bromotetramisole oxalate],percent Bodipy-positive cells,[1],64.3 ± 6.4%
O=C(CCC/C=C\C[C@@H]1C(/C=C/[C@@H](O)COc2cccc(C(F)(F)F)c2)[C@H](O)C[C@@H]1O)NC(CO)CO (stereo partly specified) [Fluprostenol serinol amide],percent Bodipy-positive cells,[6],18.4 ± 6.6%
C=CC(=O)N1CCC(Oc2cc3c(Nc4ccc(Cl)c(Cl)c4F)ncnc3cc2OC)CC1 [Poziotinib],percent Bodipy-positive cells,[2],22.2 ± 11%
same,percent Bodipy-positive cells,[3],25.1 ± 1.9%
same,percent Bodipy-positive cells,[4],12.5 ± 2.9%
same,percent Bodipy-positive cells,[1],70.7 ± 1.1%
CCN(CCO)CCCOc1ccc2c(Nc3cc(CC(=O)Nc4cccc(F)c4)[nH]n3)ncnc2c1 [Barasertib (AZD1152-HQPA)],percent Bodipy-positive cells,[5],18.9 ± 4.8%
same,percent Bodipy-positive cells,[1],33.9 ± 9%
CCCCCCCCCCCCCCCC(=O)OC[C@H](COP(=O)([O-])OCC[N+](C)(C)C)OC(=O)CCCCCCCC(=O)O,percent Bodipy-positive cells,[6],9.04 ± 0.41%
CCCCC[C@H](O)/C=C/[C@H]1CCC(=O)[C@@H]1CCCCCCC(=O)O [11-deoxy Prostaglandin E1],percent Bodipy-positive cells,[6],17.2 ± 1.2%
CCCCCCCCCCCCCCCC(=O)NCCO [Palmitoyl Ethanolamide],percent Bodipy-positive cells,[6],11.9 ± 6%
CCCCCCCCCCCCCCCC(=O)NCCO [Palmitylethanolamide],percent Bodipy-positive cells,[6],10.2 ± 3.2%
CCCCCCCCCCCCCCCC(=O)NCCO,percent Bodipy-positive cells,[1],27.4 ± 5.6%
CCCCCCCCCCCCCCCC(=O)NCCO [Palmitoylethanolamide],percent Bodipy-positive cells,[1],5.44 ± 0.8%
Cc1c(Cc2ccc3ccccc3n2)c2cc(F)ccc2n1CC(=O)O,percent Bodipy-positive cells,[5],8.34 ± 0.87%
same,percent Bodipy-positive cells,[1],55.6 ± 47%
C[C@@H](Oc1cc(-n2cnc3ccc(CN4CCN(C)CC4)cc32)sc1C(N)=O)c1ccccc1C(F)(F)F,percent Bodipy-positive cells,[4],78.4 ± 3%
same,percent Bodipy-positive cells,[1],97.33 ± 0.73%
CO[C@@H](C(=O)N1Cc2[nH]nc(NC(=O)c3ccc(N4CCN(C)CC4)cc3)c2C1)c1ccccc1,percent Bodipy-positive cells,[3],19.2 ± 11%
same,percent Bodipy-positive cells,[4],38.2 ± 8.2%
same,percent Bodipy-positive cells,[5],78.3 ± 16%
same,percent Bodipy-positive cells,[1],88.4 ± 0.29%
CN1CCN(C2=Nc3cc(Cl)ccc3Nc3ccccc32)CC1 [Clozapine],percent Bodipy-positive cells,[5],41.2 ± 7.1%
same,percent Bodipy-positive cells,[1],71.9% and 79.5%
same,percent Bodipy-positive cells,library stock concentration: 15.3 mM,88.5 ± 6.2%
NC12CC3CC(CC(C3)C1)C2 [Amantadine HCl],percent Bodipy-positive cells,[5],9.3 ± 2.1%
same,percent Bodipy-positive cells,[1],15.442 ± 0.014%
NC12CC3CC(CC(C3)C1)C2 [Symmetrel],percent Bodipy-positive cells,[1],52.7 ± 1.5%
NC12CC3CC(CC(C3)C1)C2 [Amantadine hydrochloride],percent Bodipy-positive cells,library stock concentration: 10.7 mM,5.43 ± 0.12%
NC12CC3CC(CC(C3)C1)C2 [Adamantamine fumarate],percent Bodipy-positive cells,,23 ± 4.6%
N#C/C(=C\c1ccc(O)c(O)c1)C(=O)c1ccc(O)c(O)c1 [Tyrphostin AG 538],percent Bodipy-positive cells,[1],15.6 ± 2.4%
CCCCCCCCCCCCCCCC(=O)OC[C@H](COP(=O)([O-])OCC[N+](C)(C)C)OC(=O)CCCC(=O)/C=C/C(=O)O,percent Bodipy-positive cells,[6],5.64 ± 0.77%
CO[C@H]1O[C@@H]2O[C@@]3(C)CC[C@H]4[C@H](C)CC[C@@H]([C@H]1C)[C@@]24OO3,percent Bodipy-positive cells,[1],12 ± 0.98%
CO[C@H]1O[C@@H]2O[C@@]3(C)CC[C@H]4[C@H](C)CC[C@@H]([C@H]1C)[C@@]24OO3 [Artemether],percent Bodipy-positive cells,[5],12.4 ± 3.7%
same,percent Bodipy-positive cells,[1],14% and 37.5%
"CCCCC(C)(C)[C@H](O)/C=C/[C@H]1CCC(=O)[C@@H]1C/C=C\CCCC(=O)O [11-deoxy-16,16-dimethyl Prostaglandin E2]",percent Bodipy-positive cells,[6],34.4 ± 5.2%

# From the supplement of paper PMC9135407
